Among the data in publication doi:10.1101/2023.10.20.563357 are binding values, retold here.

By UniProt entry, the sequences of proteins in these tests, tags left out. Where a name states a change or a piece, a line headed by the entry shows the natural chain unless it says otherwise.
UniProt Q6ZPK0: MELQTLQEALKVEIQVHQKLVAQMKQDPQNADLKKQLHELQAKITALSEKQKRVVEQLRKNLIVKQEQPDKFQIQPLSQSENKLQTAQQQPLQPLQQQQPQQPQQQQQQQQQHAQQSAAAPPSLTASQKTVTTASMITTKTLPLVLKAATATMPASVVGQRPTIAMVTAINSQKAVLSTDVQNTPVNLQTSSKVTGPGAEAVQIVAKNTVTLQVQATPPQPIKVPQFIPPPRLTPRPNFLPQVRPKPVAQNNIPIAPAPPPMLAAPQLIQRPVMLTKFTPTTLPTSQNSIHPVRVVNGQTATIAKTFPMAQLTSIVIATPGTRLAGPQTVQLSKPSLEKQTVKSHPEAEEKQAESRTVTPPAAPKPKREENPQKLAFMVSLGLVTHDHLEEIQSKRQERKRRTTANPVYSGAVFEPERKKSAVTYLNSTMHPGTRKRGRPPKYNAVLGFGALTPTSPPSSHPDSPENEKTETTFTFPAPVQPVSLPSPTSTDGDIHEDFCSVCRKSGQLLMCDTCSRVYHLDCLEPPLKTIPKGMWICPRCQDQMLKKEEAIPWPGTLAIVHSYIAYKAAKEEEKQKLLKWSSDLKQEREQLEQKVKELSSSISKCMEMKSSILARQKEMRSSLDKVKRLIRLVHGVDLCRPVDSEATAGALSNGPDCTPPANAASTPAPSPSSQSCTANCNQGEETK
UniProt P70288: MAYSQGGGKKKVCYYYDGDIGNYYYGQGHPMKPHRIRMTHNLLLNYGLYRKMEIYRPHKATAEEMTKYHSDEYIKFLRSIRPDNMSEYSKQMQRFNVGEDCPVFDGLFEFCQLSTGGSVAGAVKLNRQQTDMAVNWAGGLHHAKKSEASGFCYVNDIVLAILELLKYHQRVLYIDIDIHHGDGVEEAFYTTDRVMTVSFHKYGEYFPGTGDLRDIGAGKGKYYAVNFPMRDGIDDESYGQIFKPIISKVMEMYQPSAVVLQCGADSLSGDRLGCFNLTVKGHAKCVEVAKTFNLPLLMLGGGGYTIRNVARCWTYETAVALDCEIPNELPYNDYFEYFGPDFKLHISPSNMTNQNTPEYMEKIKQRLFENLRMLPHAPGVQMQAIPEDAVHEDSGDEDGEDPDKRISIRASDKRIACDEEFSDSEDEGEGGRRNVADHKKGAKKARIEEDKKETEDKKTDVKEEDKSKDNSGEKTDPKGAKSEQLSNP

Results are given in words; binding and its absence hold for the method and conditions named. Binding seen in cells or lysates may run through a third protein. A result given as binding can be weak or reduced; the word gives no strength.

The assay concerns the target canonical PHF21A (PHF21A-c), endogenous in MEF (mouse (endogenous in MEF)) (UniProt Q6ZPK0). Nature of the assay: co-IP.

As for “HDAC2, endogenous (from UniProt P70288 1-488) (enzyme)”, the binding entry was “binds”.
